Reference: publication PMC8238948, “Potent inhibitors of toxic alpha-synuclein identified via cellular time-resolved FRET biosensors” (NPJ Parkinson's Disease, 2021)
Where a name gives a salt, the structure may show the parent alone.

System: labeled αSN (monomeric)
Assay: smFRET measurements of αSN monomer conformation
Conditions: constructs 9–72 and 54–130
Procedure: SmFRET experiments were performed using two different labeled αSN constructs (residues 9–72 and residues 54–130) that report on intra-monomeric FRET (e.g., monomer conformation) of the N-terminal and C-terminal domains of αSN. […] We were not able to evaluate RO with smFRET, due to interactions of RO with the AlexaFluor-594 label.
Single-molecule FRET measurements were carried out using ~30 pM of labeled αSN in 20 mM Tris pH 7.4 and 50 mM NaCl in 8-chambered Nunc coverslips (ThermoFisher) passivated with poly(ethylene glycol) poly(L-lysine) to reduce protein adsorption to the chambers. Measurements were made on a MicroTime 200 time-resolved confocal microscope (Picoquant) as described previously. Laser power was adjusted to ~30 μW before sample illumination. Fluorescence emission was collected through the objective and passed through a 150-μm diameter pinhole. Photons were separated by an HQ585LP dichroic in combination with ET525/50M and HQ600LP filters and detected by avalanche photodiodes. Photon traces were collected in 1-ms time bins for 1 h. A cutoff of 25 counts/ms was applied to discriminate between bursts arising from fluorescently labeled protein and background noise. The FRET efficiency (Eeff) was calculated using the SymphoTime 64 software. SmFRET histograms were fit with Gaussian distributions to determine the peak Eeff values. […]

Row | SMILES | effect on monomeric conformation, smFRET histograms
1 | COC(=O)C1=C(C)NC(C)=C([N+](=O)[O-])C1c1ccccc1C(F)(F)F (racemic) [BAY, (±)-Bay K 8644] | do not modulate monomeric conformation
2 | CN(C)[C@@H]1C(O)=C(C(N)=O)C(=O)[C@@]2(O)C(O)=C3C(=O)c4c(O)ccc(Cl)c4[C@@H](O)[C@H]3C[C@@H]12 [DEM, Demeclocycline HCl] | do not modulate monomeric conformation
